Reference: paper PMC9664729
No constants are given. Whether binding was seen depends on the method and setting. Binding seen in cells or lysates may run through a third protein. Some results given as binding are weak or reduced against the parent protein; the word gives no strength. Tags and fused reporters may be left off the sequences shown. One block for each molecule: values may come before it.

By UniProt entry, the sequences of proteins in these tests, tags left out.
UniProt P19474: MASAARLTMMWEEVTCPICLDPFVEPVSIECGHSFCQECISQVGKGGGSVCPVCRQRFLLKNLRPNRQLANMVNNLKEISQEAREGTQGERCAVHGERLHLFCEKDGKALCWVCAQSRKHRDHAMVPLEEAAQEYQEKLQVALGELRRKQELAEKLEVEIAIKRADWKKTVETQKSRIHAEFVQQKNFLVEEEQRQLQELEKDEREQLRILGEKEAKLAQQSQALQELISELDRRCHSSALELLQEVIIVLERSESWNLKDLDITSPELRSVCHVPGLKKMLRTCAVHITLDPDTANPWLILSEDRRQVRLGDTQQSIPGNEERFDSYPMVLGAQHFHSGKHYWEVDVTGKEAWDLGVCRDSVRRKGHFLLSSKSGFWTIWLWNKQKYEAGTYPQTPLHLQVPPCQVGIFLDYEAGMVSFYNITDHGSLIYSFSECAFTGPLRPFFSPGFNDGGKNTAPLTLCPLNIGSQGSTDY

Legend:
[1] = molecular target: T1, Elongin A (ELOA), Flag-tagged (UniProt Q14241); assay: co-IP; indicated plasmids transfected into HCT116 cells, lysed in IP buffer with protease inhibitors, supernatants incubated with beads overnight at 4 °C, washed three times, immunoblotting; also with DLGAP1-AS2 knockdown or ectopic expression
T1 sequence: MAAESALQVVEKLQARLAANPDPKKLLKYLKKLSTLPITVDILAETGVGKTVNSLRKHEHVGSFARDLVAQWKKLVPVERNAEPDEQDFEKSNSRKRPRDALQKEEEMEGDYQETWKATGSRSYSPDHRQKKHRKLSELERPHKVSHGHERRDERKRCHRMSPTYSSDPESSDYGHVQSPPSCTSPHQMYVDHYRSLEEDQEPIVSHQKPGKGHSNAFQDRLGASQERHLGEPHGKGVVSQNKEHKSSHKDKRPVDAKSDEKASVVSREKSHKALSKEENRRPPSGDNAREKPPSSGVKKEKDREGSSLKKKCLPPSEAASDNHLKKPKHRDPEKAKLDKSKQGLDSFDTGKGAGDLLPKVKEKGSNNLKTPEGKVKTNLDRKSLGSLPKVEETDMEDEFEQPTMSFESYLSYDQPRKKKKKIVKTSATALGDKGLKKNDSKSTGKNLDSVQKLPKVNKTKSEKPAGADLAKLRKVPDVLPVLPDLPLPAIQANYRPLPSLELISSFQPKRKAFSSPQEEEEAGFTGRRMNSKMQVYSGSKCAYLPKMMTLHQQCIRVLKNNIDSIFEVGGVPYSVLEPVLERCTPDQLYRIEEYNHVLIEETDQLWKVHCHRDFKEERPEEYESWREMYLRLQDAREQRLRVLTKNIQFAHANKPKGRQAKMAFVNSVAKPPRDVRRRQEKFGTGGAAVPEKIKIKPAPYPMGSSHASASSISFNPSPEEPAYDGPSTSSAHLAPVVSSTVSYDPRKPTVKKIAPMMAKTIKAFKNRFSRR

[2] = molecular target: T2, cleavage stimulation factor (CSTF3), HA-tagged (UniProt Q12996); assay: as above
T2 sequence: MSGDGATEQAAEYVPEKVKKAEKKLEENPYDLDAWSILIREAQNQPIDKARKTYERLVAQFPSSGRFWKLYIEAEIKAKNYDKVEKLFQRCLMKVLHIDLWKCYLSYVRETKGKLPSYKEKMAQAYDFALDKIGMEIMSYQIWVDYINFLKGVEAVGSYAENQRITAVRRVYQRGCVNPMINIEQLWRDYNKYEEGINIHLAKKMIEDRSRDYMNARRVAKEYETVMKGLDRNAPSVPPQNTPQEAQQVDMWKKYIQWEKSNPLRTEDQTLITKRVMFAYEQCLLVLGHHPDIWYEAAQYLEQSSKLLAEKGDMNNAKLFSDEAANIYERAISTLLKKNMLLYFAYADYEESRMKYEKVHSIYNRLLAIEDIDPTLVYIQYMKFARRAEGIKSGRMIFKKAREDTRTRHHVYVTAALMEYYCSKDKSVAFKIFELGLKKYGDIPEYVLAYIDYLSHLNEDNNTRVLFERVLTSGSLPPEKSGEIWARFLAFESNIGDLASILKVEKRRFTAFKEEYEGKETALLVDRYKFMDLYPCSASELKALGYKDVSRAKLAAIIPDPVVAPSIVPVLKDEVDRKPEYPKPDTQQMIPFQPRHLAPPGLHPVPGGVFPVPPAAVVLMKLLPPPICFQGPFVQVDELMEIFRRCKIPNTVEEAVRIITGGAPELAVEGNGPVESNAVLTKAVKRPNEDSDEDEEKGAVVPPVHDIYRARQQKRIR

binding [1]: binds
Molecule: tripartite motif containing 21 (Trim21), Myc-tagged (from UniProt P19474 1-475)

binding [2]: binds
B1: cleavage and polyadenylation specificity factor (CPSF2), Flag-tagged (protein, UniProt Q9P2I0 1-782)
chain: MTSIIKLTTLSGVQEESALCYLLQVDEFRFLLDCGWDEHFSMDIIDSLRKHVHQIDAVLLSHPDPLHLGALPYAVGKLGLNCAIYATIPVYKMGQMFMYDLYQSRHNTEDFTLFTLDDVDAAFDKIQQLKFSQIVNLKGKGHGLSITPLPAGHMIGGTIWKIVKDGEEEIVYAVDFNHKREIHLNGCSLEMLSRPSLLITDSFNATYVQPRRKQRDEQLLTNVLETLRGDGNVLIAVDTAGRVLELAQLLDQIWRTKDAGLGVYSLALLNNVSYNVVEFSKSQVEWMSDKLMRCFEDKRNNPFQFRHLSLCHGLSDLARVPSPKVVLASQPDLECGFSRDLFIQWCQDPKNSIILTYRTTPGTLARFLIDNPSEKITEIELRKRVKLEGKELEEYLEKEKLKKEAAKKLEQSKEADIDSSDESDIEEDIDQPSAHKTKHDLMMKGEGSRKGSFFKQAKKSYPMFPAPEERIKWDEYGEIIKPEDFLVPELQATEEEKSKLESGLTNGDEPMDQDLSDVPTKCISTTESIEIKARVTYIDYEGRSDGDSIKKIINQMKPRQLIIVHGPPEASQDLAECCRAFGGKDIKVYMPKLHETVDATSETHIYQVRLKDSLVSSLQFCKAKDAELAWIDGVLDMRVSKVDTGVILEEGELKDDGEDSEMQVEAPSDSSVIAQQKAMKSLFGDDEKETGEESEIIPTLEPLPPHEVPGHQSVFMNEPRLSDFKQVLLREGIQAEFVGGVLVCNNQVAVRRTETGRIGLEGCLCQDFYRIRDLLYEQYAIV
